# From PubChem BioAssay AID2685 (National Center for Advancing Translational Sciences (NCATS), 2010)
# In all, about 320,000 compounds went through this assay and about 2,100 (0.66%) were called active. This list was built around the results that the source calls inconclusive (neither active nor inactive); the mix of calls is not that of the screen. The call rests on the fitted dose curve; in most records, active means well fitted inhibition curve with a large enough effect in the signal ratio, with a control signal flat (not every such curve was filed as active); inconclusive means small, poorly fitted or top-dose-only effect, or effect the other way, or a change in a side signal; inactive means flat fitted curve, though single readings scatter; the % refers to the signal ratio. Where the call is inconclusive, the potency comes from a doubtful curve fit.
# Test: qHTS Assay for Lipid Storage Modulators in Drosophila S3 Cells
# Details: BODIPY lipid droplet fluorescence, 18-24 h, cells fed with added oleic acid; lipid storage change, negative = inhibition: at 46.1 µM (top of the series) unless noted
# Summary of the method: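 Laser-scanning cytometry quantifies lipid droplet accumulation (500–530 nm total intensity; droplet/cell object ratio) in oleic acid-fed (400 uM added) Drosophila S3 cells treated with a concentration series. 20 uM Triacsin C defined 100% inhibition.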
# On the % scale 0 is the no-effect control and ±100 the full control effect; potency means the concentration at half of the fitted maximal effect.
Compound,"lipid storage change, negative = inhibition",Potency,outcome
CSc1ccc(/C=C(/NC(=O)c2ccco2)C(=O)N2CCOCC2)cc1,inconclusive: 10.2%,–,–
O=C(OCC(=O)C12CC3CC(CC(C3)C1)C2)c1cccnc1,inconclusive: -41.6%,–,–
O=C(CN1CCN(C2CCCCC2)CC1)Nc1ccccc1-c1ccccc1,inconclusive: -21.2%,–,–
CN(CC(=O)Nc1c(Cl)cccc1Cl)C(=O)C1=COCCO1,inconclusive,–,–
COc1ccc(CNC(=O)c2cc(C3CC3)nc3c2cnn3C(C)C)cc1OC,–,active: 11.6 µM,–
COc1ccc(CN2CCC(n3nccc3NC(=O)C3CCCC3)CC2)cc1,inconclusive: 46.6%,–,–
CCOc1ccc(NC(=O)Cn2ncc3ccccc32)cc1,inconclusive: 31.3%,–,–
CC(C)(C)NC(=O)C1CCN(C(=O)c2ccc(Br)cc2)CC1,inconclusive: 32.6%,–,–
CCCSc1nnc(Cn2c(=O)sc3ccccc32)n1-c1ccccc1,inconclusive: -12.7% [at 9.22 µM],–,–
CCOC(=O)C1=C(CN2CCOCC2)NC(=O)NC1c1cccc([N+](=O)[O-])c1 (stereo unspecified),inconclusive: 14.4%,–,–
Cc1cccc(C)c1NC(=O)CN1N=NC2C(=O)N(c3cccc(Cl)c3)C(=O)C21 (stereo unspecified),–,"inconclusive: 0.092 µM [falling, full curve, poor fit]",–
Cc1cc(C)c(S(=O)(=O)NCc2cn3c(C)csc3n2)c(C)c1,inconclusive: -20.2%,–,–
Cc1cc(C)c2c(N)c(C(=O)c3ccc(Cl)cc3Cl)sc2n1,inconclusive: -5.22%,–,–
Cc1cccc(NC(=O)c2ccc(S(=O)(=O)N3CCC(C)CC3)cc2)n1,–,"inconclusive: 16.4 µM [falling, single point]",–
Cc1cc(=O)oc2cc(OCC(=O)N3CCN(C(=O)C4COc5ccccc5O4)CC3)c(Cl)cc12 (stereo unspecified),inconclusive: 64.9%,–,–
O=C(c1cccs1)c1ccc(-c2cccs2)s1,inconclusive: 21.3%,–,–
Cc1ccc2nc(SCC(=O)NC3CCCC3)[nH]c2c1,inconclusive: 83.1%,–,–
O=C1NC(c2ccco2)Nc2ccccc21 (stereo unspecified),–,"inconclusive: 1.3 µM [falling, full curve, poor fit]",–
Cc1ccc(C(=O)NNC(=O)CSc2nnc3c(n2)[nH]c2ccc(C)cc23)cc1,inconclusive: -33.8%,–,–
O=C(NCC1COc2ccccc2O1)c1cccs1 (stereo unspecified),inconclusive: 384%,–,–
Cc1[nH]c2c(C(=O)N3CCCC(CCC(=O)NCc4ccccc4F)C3)cccc2c1C (stereo unspecified),–,"inconclusive: 0.231 µM [falling, full curve]",–

# Among those listed so far, these contain an NH in an aromatic ring.
Compound,"lipid storage change, negative = inhibition",Potency,outcome
Cc1ccc2nc(SCC(=O)NC3CCCC3)[nH]c2c1,inconclusive: 83.1%,–,–
Cc1ccc(C(=O)NNC(=O)CSc2nnc3c(n2)[nH]c2ccc(C)cc23)cc1,inconclusive: -33.8%,–,–
Cc1[nH]c2c(C(=O)N3CCCC(CCC(=O)NCc4ccccc4F)C3)cccc2c1C (stereo unspecified),–,"inconclusive: 0.231 µM [falling, full curve]",–

# More entries follow.

Compound,"lipid storage change, negative = inhibition",Potency,outcome
O=C(NC1CCCC1)c1ccc(Br)o1,inconclusive: -179%,–,–
CC(C)c1ccc(NC(=S)NC2CCN(Cc3ccccc3)CC2)cc1,inconclusive: -23.6%,–,–
Cc1nc(CCNS(=O)(=O)c2cccs2)cs1,inconclusive: 13%,–,–
Cc1cc(O)c(C(C[N+](=O)[O-])c2ccc(Cl)cc2)c(=O)o1 (stereo unspecified),inconclusive: 96.2%,–,–
CCOC(=O)c1sc2nc(CC(=O)OC)nc(NCc3ccc(F)cc3)c2c1C,–,"inconclusive: 23.1 µM [falling, single point]",–
Cc1ccc(NC(=O)CSc2nnc(Cc3ccccc3)o2)c(C)c1,inconclusive: 8.45%,–,–
COc1ccc(-c2nn(-c3ccccc3)cc2C(=O)Nc2ccc(C(=O)O)cc2)cc1,–,"inconclusive: 29.1 µM [falling, single point]",–
CCC1Oc2ccccc2N(CC(=O)N2CCOCC2)C1=O (stereo unspecified),inconclusive: 24.5%,–,–
C/C(=N/NC(=O)CNC(=O)c1ccncc1)c1ccco1,inconclusive: -17.4%,–,–
Cc1cc(C(=O)N/N=C/c2cn(C)nc2C)c2ccccc2n1,inconclusive: -42.2%,–,–
CC(=O)c1ccc(OCCCC(=O)Nc2cccc(S(=O)(=O)N3CCCCC3)c2)cc1,inactive: 14.7%,–,–
COc1ccc(C2(C)NC(=O)N(CC(=O)c3cc(C)n(C4CC4)c3C)C2=O)cc1OC (stereo unspecified),inconclusive: -53%,–,–
CCCOc1ccc(/C(O)=C2/C(=O)C(=O)N(CCN(CC)CC)C2c2ccncc2)cc1 (stereo unspecified),–,"inconclusive: 8.2 µM [falling, partial curve]",–
Cc1ccc(C)c(N2CCN(C(=O)c3ccc(NS(=O)(=O)c4c(C)noc4C)cc3)CC2)c1,inconclusive: -46%,–,–
O=C(O)CNC1=NCCC1,inconclusive: -44.4%,–,–
C=CCn1c(SCc2cc(C(C)=O)ccc2OCC)nc2ccccc2c1=O,inconclusive: -3.45%,–,–
CC(=O)Nc1nc2ccc(C(=O)NC3CCCCC3)cc2s1,inconclusive: -28.4%,–,–
Cc1cc2c(nc1C)CCCN2C[C@@H](C)O/N=C1/[C@H]2CCn3c(=O)n(-c4ccccc4)c(=O)n3[C@H]2[C@H](O)[C@@H]2O[C@H]12,inconclusive: 17.1%,–,–
CCCCN(C(=O)CSc1nc2ccccc2n1CC)C1CCS(=O)(=O)C1 (stereo unspecified),inconclusive: 2.18%,–,–
CCCC(=O)Nc1ccc2c(c1)nc(CCNC(=O)c1ccccc1)n2C,–,"inconclusive: 1.03 µM [activator, partial curve]",–
COc1ccccc1NC(=O)OC(C)c1ccc(Cl)cc1 (stereo unspecified),–,"inconclusive: 29.1 µM [activator, single point]",–

Compound,"lipid storage change, negative = inhibition",Potency,outcome
CCOC(=O)c1sc(NC(=O)C2CC2)nc1C,inconclusive: -2.41%,–,–
CCOC(=O)c1[nH]c(C)c(C(=O)NC2CCCCC2)c1C,inactive: 2%,–,–
CCOc1ccc2nc(N3C(=O)/C(=C/c4ccc(Cl)cc4)NC3=S)sc2c1,inactive: -9.5%,–,–
CCc1cc(CC)c(/C=N/NC(N)=O)c(CC)c1,inconclusive: -0.356%,–,–
O=C(N/N=C/C=C/c1ccc([N+](=O)[O-])cc1)c1cccs1,inconclusive: 32.7%,–,–
CN(C)CCn1c(=S)[nH]c2ccccc2c1=O,–,"inconclusive: 0.731 µM [falling, single point]",–
CN(CC(=O)Nc1ccccc1Cl)C(=O)COC(=O)/C=C/c1ccccc1,inconclusive,–,–
O=C(C1=NN(c2ccccc2)C2C(=O)N(c3ccccc3)C(=O)C12)c1ccccc1 (stereo unspecified),inconclusive: -14.8%,–,–
C[C@@H](NC(=O)c1[nH]cnc1C(=O)Nc1nccs1)c1ccccc1,–,"inconclusive: 10.3 µM [activator, single point]",–
Nc1c(C(=O)CSc2nccn2-c2ccc(Cl)cc2)c(=O)[nH]c(=O)n1C1CC1,inconclusive: 15.9%,–,–
O=C(c1cc2c(F)cccc2s1)N1CCCC1,inconclusive: 2.13%,–,–
COc1ccc(CCN2C(=O)c3ccccc3NC2c2cc(Cl)c(O)c(OC)c2)cc1 (stereo unspecified),inconclusive: -42.5%,–,–
CCOc1ccc(N2C(=O)CC(N3CCN(c4ccccc4OC)CC3)C2=O)cc1 (stereo unspecified),–,"inconclusive: 14.6 µM [falling, partial curve, poor fit]",–
Cc1cccc(/C=C2\Oc3cc(OS(C)(=O)=O)ccc3C2=O)c1,inconclusive: -36.8%,–,–
CCC1CCCCN1CCCNC(=O)C1CCN(c2nnc(-n3cccc3)s2)CC1 (stereo unspecified),inconclusive: 16.5%,–,–
CSc1oc(-c2cccs2)nc1S(=O)(=O)c1ccccc1,inconclusive: 32.4%,–,–
Cc1ccc(N2C(=O)c3cccc4c(N5CCN(C)CC5)ccc(c34)C2=O)c2cccnc12,inconclusive: -4.66%,–,–
O=C(NC1(Cc2ccccc2)CCN(CCCc2ccccc2)C1=O)c1ccccc1 (stereo unspecified),–,"inconclusive: 20.6 µM [falling, single point]",–
O=C(O)CC(=O)Nc1ccc(Oc2ccc(C(F)(F)F)cn2)c(Cl)c1,inconclusive: -52.3%,–,–
COc1ccc(N2C(=O)CS/C2=C\[N+](=O)[O-])cc1,–,"inconclusive: 6.51 µM [activator, partial curve, poor fit]",–
NC(=O)c1ccc(F)cc1,inconclusive: -7.21%,–,–

Compound,"lipid storage change, negative = inhibition",Potency,outcome
CCOC(=O)c1ccccc1OC(=O)CS(=O)c1ccccc1[N+](=O)[O-] (stereo unspecified),–,–,inactive [at 46.1 µM]
COc1ccc2[nH]c(C(=O)Nc3ccc4c(c3)OCO4)cc2c1,inconclusive: 19.5%,–,–
CC(C)CC(=O)Nc1c2c(nn1-c1cccc(Cl)c1)CS(=O)C2 (stereo unspecified),inconclusive: 9.65%,–,–
O=C(Oc1ccc(Cl)c2cccnc12)c1cccnc1,inconclusive: 2.35%,–,–
CC12CN(C(=O)c3ccccc3)C3(C#N)CC1CCC23C (stereo unspecified),–,"inconclusive: 0.651 µM [falling, single point]",–
Cc1nc(NC(=O)/C=C/c2ccco2)sc1C,inconclusive: 19%,–,–
CC1=CC2=NC(=O)/C(=C\c3ccc(-c4ccc(Cl)cc4)o3)C(=N)N2O1,inactive: -14%,–,–
COc1ccc(C(=O)Nc2nnc(CCc3ccccc3)s2)c(OC)c1,–,"inconclusive: 29.1 µM [falling, single point]",–
CCOC(=O)c1c(/N=C/c2cccc([N+](=O)[O-])c2O)sc(C)c1C,inconclusive: 15.3%,–,–
O=C1c2cccc3cccc(c23)C(=O)N1CC1CCCO1 (stereo unspecified),inconclusive: -17.6%,–,–
CC(=O)N(C(C)=O)S(=O)(=O)c1ccc(N=NN2CCCCC2)cc1,inconclusive: 13.8%,–,–
O=C(Nn1cnnc1)c1ccccc1Cl,inconclusive: 5.53%,–,–
CS(=O)(=O)c1ccc(SCC(=O)NC2CCS(=O)(=O)C2)c([N+](=O)[O-])c1 (stereo unspecified),inconclusive: -20.3%,–,–
COc1ccc(CCNc2cc(C)[nH]c(=O)c2)cc1OC,inconclusive: 8.76%,–,–
Cc1cc(C(=O)CSc2nnnn2C)c(C)n1-c1ccc2c(c1)OCCO2,inconclusive: 114%,–,–
O=c1oc2ccc(Cl)cc2cc1-c1ccccc1,inconclusive: 7.57%,–,–
COc1ccc(-n2nc(C(=O)NCC(=O)N3CCC(C)CC3)c3ccccc3c2=O)cc1,–,"inconclusive: 0.651 µM [falling, single point]",–
CCCCn1c(SCC(=O)NCc2ccco2)nc2c(sc3ccccc32)c1=O,–,"inconclusive: 1.64 µM [activator, partial curve, poor fit]",–

# Entries shown so far that contain bromine, in the order listed:
Compound,"lipid storage change, negative = inhibition",Potency,outcome
CC(C)(C)NC(=O)C1CCN(C(=O)c2ccc(Br)cc2)CC1,inconclusive: 32.6%,–,–
O=C(NC1CCCC1)c1ccc(Br)o1,inconclusive: -179%,–,–
